Measured values from patent publication US20100303785A1 (RAMOT AT TEL AVIV UNIVERSITY, published 2010).
These are yes or no findings as the source states them, for the method shown. Some binding calls cover weakened binding; strength is not graded here.

Amino acid sequences for entries named in this document (tags omitted). A change or cut given only in a name is not applied to a line headed by its entry. Chains listed by the source or under a name are the forms on record and can include a tag or linker.
Recombinant tau containing three tubulin binding repeats (3R) (P10636, form named): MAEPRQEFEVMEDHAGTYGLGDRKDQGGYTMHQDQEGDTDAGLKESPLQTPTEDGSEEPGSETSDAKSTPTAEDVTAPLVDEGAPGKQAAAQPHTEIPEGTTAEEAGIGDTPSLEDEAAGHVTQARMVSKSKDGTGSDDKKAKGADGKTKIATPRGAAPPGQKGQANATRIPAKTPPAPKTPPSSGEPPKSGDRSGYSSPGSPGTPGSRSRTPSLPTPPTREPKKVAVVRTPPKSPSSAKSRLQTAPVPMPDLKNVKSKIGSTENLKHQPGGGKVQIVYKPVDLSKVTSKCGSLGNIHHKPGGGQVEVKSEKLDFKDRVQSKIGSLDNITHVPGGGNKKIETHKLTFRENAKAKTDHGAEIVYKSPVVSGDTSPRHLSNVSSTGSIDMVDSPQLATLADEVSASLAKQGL

Assays:
[1] = biological target: Recombinant tau containing three tubulin binding repeats (3R) (Homo sapiens) (UniProt P10636); assay: affinity chromatography on a NAP-affinity column, tau-specific western blot
[2] = biological target: Recombinant tau containing three tubulin binding repeats (3R) (Homo sapiens) (UniProt P10636); assay: dot blot of NAP or VIP peptide with tau (FIG. 13)
[3] = biological target: Recombinant tau containing three tubulin binding repeats (3R) (Homo sapiens) (UniProt P10636); assay: summary of the examples' direct binding studies
[4] = biological target: Recombinant tau containing three tubulin binding repeats (3R) (Homo sapiens) (UniProt P10636); assay: dot blot: NAP (10^-3M, 5 µl) on nitrocellulose, incubated with 2 µM 3R tau, detected with tau5 antibody

Measured: binding

B1: NAP (NAPVSIPQ = Asn-Ala-Pro-Val-Ser-Ile-Pro-Gln) (peptide)
peptide: NAPVSIPQ
binds: all assays above
